Some of these results come from one statement about several compounds together.
Columns and labels:
Phytophthora infestans = format: in vivo; details: 200 ppm; tomato leaf disks, preventative, inoculated 1 day after application, assessed 5-7 days after application, compared to untreated
Pythium ultimum = experiment: Pythium ultimum/Liquid Culture (Seedling Damping Off); format: cell-based; details: 200 ppm; liquid culture in PDB, 24° C., inhibition of growth determined photometrically 2-3 days after application
Plasmopara viticola = experiment: Plasmopara viticola/Grape/Leaf Disc Preventative (Grape Downy Mildew); format: in vivo; details: 200 ppm, grape vine leaf disks, inoculated 1 day after application, assessed 6-8 days after application, compared to untreated

| SMILES | disease control (Phytophthora infestans) | disease control (Pythium ultimum) | disease control (Plasmopara viticola) |
| --- | --- | --- | --- |
| Cc1cc(C(F)(F)F)nn1CC(=O)N1CCC(c2csc(NC(=O)Cc3c[nH]c4ccccc34)n2)CC1 [I.bq.001] | at least 80% |  |  |
| Cc1cc(C(F)(F)F)nn1CC(=O)N1CCC(c2csc(NC(=O)c3cc(=O)c4ccccc4o3)n2)CC1 [I.bh.001] | at least 80% | at least 80% | at least 80% |
| CSc1ccc(C(=O)Nc2nc(C3CCN(C(=O)Cn4nc(C(F)(F)F)cc4C)CC3)cs2)cc1 [I.bt.001] | at least 80% |  |  |
| Cc1cc(C(F)(F)F)nn1CC(=O)N1CCC(c2csc(NC(=O)C3CCCc4ccccc43)n2)CC1 (stereo not drawn) [I.aw.001] | at least 80% |  | at least 80% |
| Cc1cc(C(F)(F)F)nn1CC(=O)N1CCC(c2csc(NC(=O)c3cccc(Cl)c3O)n2)CC1 [I.f.001] | at least 80% | at least 80% | at least 80% |
| Cc1cc(C(F)(F)F)nn1CC(=O)N1CCC(c2csc(NC(=O)Cc3ccccc3)n2)CC1 [I.aj.001] | at least 80% | at least 80% | at least 80% |
| Cc1cc(C(F)(F)F)nn1CC(=O)N1CCC(c2csc(NC(=O)Cc3cccs3)n2)CC1 [I.bp.001] | at least 80% |  |  |
| Cc1cc(C(F)(F)F)nn1CC(=O)N1CCC(c2csc(NC(=O)c3ccc(-c4ccccc4)cc3)n2)CC1 [I.bv.001] | at least 80% |  |  |
| Cc1cc(C(F)(F)F)nn1CC(=O)N1CCC(c2csc(NC(=O)Cc3c(F)cccc3Cl)n2)CC1 [I.as.001, 2-(2-chloro-6-fluoro-phenyl)-N-(4-{1-[2-(5-methyl-3-trifluoromethyl-pyrazol-1-yl)-acetyl]-piperidin-4-yl}-thiazol-2-yl)-acetamide] | at least 80% |  | at least 80% |
| Cc1cc(C(F)(F)F)nn1CC(=O)N1CCC(c2csc(NC(=O)c3cc(Cl)ccc3Cl)n2)CC1 [I.bn.001] | at least 80% | at least 80% | at least 80% |
| CC(=O)Oc1c(Cl)cccc1C(=O)Nc1nc(C2CCN(C(=O)Cn3nc(C(F)(F)F)cc3C)CC2)cs1 [I.g.001] | at least 80% | at least 80% | at least 80% |
| Cc1cc(C(F)(F)F)nn1CC(=O)N1CCC(c2csc(NC(=O)CCc3ccccc3)n2)CC1 [I.bo.001] | at least 80% |  | at least 80% |
| CC(=O)Oc1c(Cl)cc(Cl)cc1C(=O)Nc1nc(C2CCN(C(=O)Cn3nc(C(F)(F)F)cc3C)CC2)cs1 [I.t.001] | at least 80% | at least 80% | at least 80% |
| Cc1cc(C(F)(F)F)nn1CC(=O)N1CCC(c2csc(NC(=O)c3cnc4ccccc4n3)n2)CC1 [I.bk.001] | at least 80% |  | at least 80% |
| Cc1cc(C(F)(F)F)nn1CC(=O)N1CCC(c2csc(NC(=O)Cc3ccccc3Cl)n2)CC1 [I.ao.001] | at least 80% |  |  |
| COc1cscc1C(=O)Nc1nc(C2CCN(C(=O)Cn3nc(C(F)(F)F)cc3C)CC2)cs1 [I.bi.001] | at least 80% | at least 80% | at least 80% |
| Cc1cc(C(F)(F)F)nn1CC(=O)N1CCC(c2csc(NC(=O)Cc3csc(-c4ccccc4)n3)n2)CC1 [I.br.001] | at least 80% |  |  |
| Cc1cc(C(F)(F)F)nn1CC(=O)N1CCC(c2csc(NC(=O)c3cccc(C(F)(F)F)c3F)n2)CC1 [I.bm.001] | at least 80% | at least 80% | at least 80% |
| Cc1cc(C(F)(F)F)nn1CC(=O)N1CCC(c2csc(NC(=O)c3cc(Cl)cc(Cl)c3O)n2)CC1 [I.s.001] | at least 80% | at least 80% | at least 80% |
| Cc1cc(C(F)(F)F)nn1CC(=O)N1CCC(c2csc(NC(=O)c3ccc4ccccc4n3)n2)CC1 [I.bj.001] | at least 80% |  | at least 80% |
| Cc1cc(C(F)(F)F)nn1CC(=O)N1CCC(c2csc(NC(=O)c3ccc(C(C)C)cc3)n2)CC1 [I.bs.001] | at least 80% |  |  |
| Cc1cc(C(F)(F)F)nn1CC(=O)N1CCC(c2csc(NC(=O)c3csnn3)n2)CC1 [I.by.001] | at least 80% |  | at least 80% |
| Cc1cc(C(F)(F)F)nn1CC(=O)N1CCC(c2csc(NC(=O)c3cc(F)c(F)c(Cl)c3F)n2)CC1 [I.bu.001] | at least 80% |  | at least 80% |

From patent publication US20140228372A1 (priority 2011, published 2014)
